In PubChem BioAssay AID2685 (National Center for Advancing Translational Sciences (NCATS), 2010) one finds cell number change and AC50 data, which are given here for 37 molecules.

This experiment can be described thus: qHTS Assay for Lipid Storage Modulators in Drosophila S3 Cells.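 For cell number change: cells counted by Cell Tracker Red CMTPX staining in the red channel.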 The settings on record: BODIPY lipid droplet fluorescence, 18-24 h; for cell number change: measured here: cell count max response, cells fed with added oleic acid. The procedure, abridged:
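Laser-scanning cytometry quantifies lipid droplet accumulation (500–530 nm total intensity; droplet/cell object ratio) in oleic acid-fed (400 uM added) Drosophila S3 cells treated with a concentration series. 20 uM Triacsin C defined 100% inhibition.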

[1] abbreviates: measured here: cell number channel AC50, cells fed with added oleic acid.
The mark [2] stands for this setting: measured here: lipid fluorescence (Fed channel) AC50, cells fed with added oleic acid.

Values joined by “and” are separate entries in the source; they are usually repeats but may differ in a detail not shown here. Equal entries are not always repeated. Some of the results follow. Shown are side measurements of this screen, not its main read-out; they come without a call. The list favours compounds with an active or inconclusive main result. Potencies come from curve fits of mixed quality, noted in brackets.

For the molecule `CCOC(=O)c1oc2ccccc2c1NC(=O)c1ccc(S(=O)(=O)N2CCCC2)cc1`, the cell number change turned out to be 4.39%.
For the molecule `CCOc1ccccc1NC(=S)Nn1cnnc1`, the cell number change stood at 2.35%.
A word on the AC50: it is the concentration at which the activity in the assay is half-maximal. Turning to `Cc1cc(C)nc(N/N=C/c2ccccc2OCc2ccc([N+](=O)[O-])cc2)n1`, the cell number change was 42%. Moreover, the AC50 under setting [1] is 8.2 µM [rising, partial curve]. Besides, the AC50 under setting [2] is 14.6 µM [rising, partial curve].
Turning to `Cc1cc2cc(CN(C(=O)C3CC3)C3CCCC3)c3nnnn3c2cc1C`, the cell number change is -3.25%. Also, the AC50 under setting [1] is 0.82 µM [falling, single point]. Further, the AC50 under setting [2] was 0.82 µM [falling, partial curve, poor fit].
`O=C1C=C(c2cccc(CO)c2)C[C@@H](c2ccc(Cl)cc2)C1`: the cell number change is -12.4%. In addition, the AC50 under setting [2] was 1.16 µM [falling, single point].
Consider `Cc1cc(SCC(=O)NC(=O)NCc2ccco2)nc2c(C)cccc12`, for which the cell number change came out at 8.55%. Moreover, the AC50 under setting [1] is 0.13 µM [rising, full curve, poor fit]. In addition, under setting [2], the AC50 was 0.0461 µM [rising, partial curve, poor fit].
For `Cc1ccc(CNC(=O)CCCC(=O)Nc2cc(C)on2)cc1`, the cell number change is -18.7%. Also, the AC50 under setting [2] is 6.51 µM [falling, partial curve].
As for `CN(C(=S)NC(=O)/C=C/c1ccc(F)cc1)C1CCCCC1`, the cell number change is 4%.
For the molecule `COc1ccc(CCNc2ncnc3sccc23)cc1OC`, the cell number change was -26.7%. Moreover, the AC50 under setting [2] is 7.31 µM [falling, partial curve].
With `O=C(NCc1cccnc1)C(=O)Nc1ccc2c(c1)OCO2`, the cell number change is 32.7%. Besides, the AC50 under setting [1] was 0.0184 µM [rising, full curve, poor fit]. In addition, the AC50 under setting [2] is 0.0461 µM [rising, full curve].
On to `COc1ccccc1-c1nnc(NC(=O)Cc2ccccc2)o1`, for which the cell number change turned out to be 15.8%.
As for `CC(=O)Oc1ccc2c(C)cc(=O)oc2c1C(=O)c1ccccc1`, the cell number change was 110%. Also, under setting [1], the AC50 is 6.51 µM [falling, single point]. Moreover, the AC50 under setting [2] is 6.51 µM [falling, single point].
Consider `Oc1c(Br)cc(Br)cc1C=Nc1ccc2c(c1)OCO2`, for which the cell number change was found to be 5.97%. Moreover, the AC50 under setting [2] is 29.1 µM [rising, single point].
Take `c1ccc(-c2ccc(OCCOCCn3cncn3)cc2)cc1`: the AC50 is 0.82 µM [rising, full curve] under setting [1] and 1.16 µM [rising, full curve] under setting [2].
As to `CCCCC1=NN2CCS(=O)(=O)N=C2S1`, the cell number change stood at 19.2%.
Turning to `COc1ccc(/C=C2\N=C(c3ccc(C)cc3)OC2=O)cc1`, the cell number change was 28.1%. Further, under setting [2], the AC50 is 29.1 µM [rising, single point].
For the molecule `CCN1C(=NCCc2c[nH]c3ccccc23)N[C@@H](c2ccccc2)[C@H](C(=O)OC)[C@H]1C`, the cell number change was 5.99% and 9.7%. Also, the AC50 under setting [2] is 0.00461 µM [rising, full curve, poor fit].
Turning to `COc1ccc(C2CC(c3ccccc3)=NN2C(=O)c2ccc(Cl)c([N+](=O)[O-])c2)cc1` (configuration not stated), the cell number change was determined as 35.3%. In addition, the AC50 under setting [1] was 23.1 µM [rising, single point]. Moreover, the AC50 under setting [2] is 18.4 µM [rising, single point].
On to `Cc1ccc(C(CC(=O)NCCCN(C)C)c2ccc(OC(C)C)cc2)cc1` (configuration not stated), for which the cell number change was 11.8%. Also, under setting [2], the AC50 is 2.06 µM [rising, partial curve].
`Cc1noc(C)c1S(=O)(=O)N1CCC(C(=O)NC2CCN(Cc3ccccc3)CC2)CC1`: the cell number change was 13.4%.
Take `O=C(CSCc1cccc(Br)c1)NC1CC1`: the cell number change is 121%. The AC50 under setting [1] is 29.1 µM [rising, partial curve, poor fit].
In the case of `COc1ccc(C(=O)c2sc(Nc3ccccc3)nc2N)cc1`, the cell number change is -34.1%. Also, under setting [1], the concentration at half-maximal activity (AC50) was 23.1 µM [falling, single point]. Further, the AC50 under setting [2] was 20.6 µM [falling, single point].
As for `Cc1ccc(CNC(=O)C2CC(=O)N(C3CCCC3)C2)cc1` (configuration not stated), the cell number change was -45.5%. The AC50 under setting [1] is 0.00517 µM [falling, full curve, poor fit]. Also, under setting [2], the AC50 is 2.59 µM [falling, full curve].
In the case of `COc1ccccc1C(=O)Nc1ccc(Br)c2cccnc12`, under setting [2], the AC50 was 20.6 µM [falling, partial curve].
For `COc1ccc(CN2CCOCC2)cc1OC`, the cell number change is -33.9%. Also, under setting [1], the AC50 is 4.61 µM [falling, full curve, poor fit].
`CC(=O)c1cccc(NC(=O)c2cc(-n3cnnc3)ccc2Cl)c1`: the cell number change came to 2.05%. Besides, the AC50 under setting [2] was 6.51 µM [falling, partial curve, poor fit].
On to `O=C(Cc1ccccc1)NC(=S)Nc1ccc(N2CCCCC2)cc1`, for which the cell number change is -8.22%. Further, under setting [2], the AC50 was 2.06 µM [falling, partial curve].
For the molecule `O=C(CN1C(=O)C2C3CCC(C3)C2C1=O)OCC(=O)c1ccc(Br)cc1` (configuration not stated), the cell number change stood at 4.62%. Besides, under setting [2], the AC50 is 11.6 µM [rising, single point].
Turning to `CC(=O)Nc1ccc(NC(=O)C2CCCN2C(=O)Nc2ccc(F)c([N+](=O)[O-])c2)cc1` (configuration not stated), the cell number change was -46.1%. The AC50 under setting [1] is 4.61 µM [falling, full curve]. Besides, under setting [2], the AC50 is 5.17 µM [falling, full curve].
Turning to `CCNS(=O)(=O)c1c(C)cc(N2CCCC2=O)cc1C`, the AC50 under setting [2] is 0.231 µM [falling, full curve].
Take `CCOC(=O)C1(Cc2ccccc2)CCN(Cc2ccc(C)s2)CC1`: the cell number change is -23.4%. Besides, the AC50 under setting [2] was 16.4 µM [falling, single point].
`COc1cc(C(=O)N2c3ccccc3CCC2C)cc(OC)c1OC` (configuration not stated): the cell number change was -2.19%. Besides, under setting [2], the AC50 was 6.51 µM [rising, single point].
As for `NCCCC[C@H]1NC(=O)[C@H](CCC(=O)O)NC(=O)c2cc([N+](=O)[O-])cc(I)c2OCC[C@@H](C(N)=O)NC1=O`, the cell number change was 44%. Also, the AC50 under setting [1] is 29.1 µM [rising, single point]. The AC50 under setting [2] is 0.00461 µM [falling, full curve, poor fit].
For `CC1(C)CC(=O)C2=C(C1)OC(N)=C([N+](=O)[O-])C2c1cccs1` (configuration not stated), the cell number change is -33.5%. Under setting [1], the AC50 is 32.6 µM [falling, partial curve, poor fit]. In addition, the AC50 under setting [2] was 0.00461 µM [falling, full curve, poor fit].
For `COC(=O)C1=C(CSc2nc3ccccc3s2)NC(=O)NC1c1ccc(F)cc1` (configuration not stated), the cell number change is 8.12%. In addition, under setting [2], the AC50 is 0.461 µM [rising, single point].
As to `O=C(O)c1ccccc1CSC1=NCCS1`, the cell number change is -14.3%. For the same molecule, the AC50 under setting [2] was 29.1 µM [falling, single point].
Turning to `O=C(NCc1ccc(F)cc1)C(=O)c1cn(CC(=O)N2CCCC2)c2ccccc12`, the cell number change was -1.89%. The concentration at half-maximal activity (AC50) under setting [2] is 16.4 µM [falling, partial curve, poor fit].
